Measured values published in paper doi:10.1101/338061.
Changes are numbered by the printed parent chain. For some of these results: The comparison behind a weaker result is the experiment's own reference, which may not be listed here. Tags and fusion partners may be left off the protein sequences shown. For some of these results: Construct, isoform or probe ends are uncertain for at least one entry. For some of these results: At least one verdict rests on a figure or table, not on a statement of the authors.

Assays:
[1] = target: T1, MBD3 MBD (crystallization) (Homo sapiens) (UniProt O95983); test: crystal structure; details: 5mC at position 6 of both strands; residues 1-71
T1 sequence (looked up): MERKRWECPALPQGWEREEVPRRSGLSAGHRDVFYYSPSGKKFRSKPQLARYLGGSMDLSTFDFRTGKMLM

[2] = target: T2, MBD3 MBD F34Y (Homo sapiens) (UniProt O95983); test: ITC; details: 5mC at position 6 of both strands; residues 1-71
T2 sequence (looked up): T1 sequence (looked up) with F34Y

MBD3 MBD (Homo sapiens) = target: T3, MBD3 MBD (Homo sapiens) (UniProt O95983); test: ITC; details: residues 1-71
T3 sequence (looked up): T1 sequence (looked up)

MBD4 MBD (Homo sapiens) = target: T4, MBD4 MBD (Homo sapiens) (UniProt O95243); test: ITC; details: 5hmC at position 6 of both strands; residues 55-152
T4 sequence (looked up): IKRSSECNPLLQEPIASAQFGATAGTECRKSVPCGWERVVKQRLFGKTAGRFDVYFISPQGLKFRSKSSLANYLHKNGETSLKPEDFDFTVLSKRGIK

MBD1 MBD (Homo sapiens) = target: T5, MBD1 MBD (Homo sapiens) (UniProt Q9UIS9); test: ITC; details: 5hmC at position 6 of both strands; residues 1-77
T5 sequence (looked up): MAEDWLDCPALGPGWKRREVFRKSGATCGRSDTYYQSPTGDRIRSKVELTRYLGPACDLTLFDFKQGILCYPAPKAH

GCCAACGTTGGC (double strand) [AmCGT (mCG)]
binding result [1]: binds

GCCAGCGCTGGC (double strand) [GmCGC]
binding result [1]: binds | Kd [2]: 400 nM

GCCAACGCTGGC (double strand) [AmCGC]
Kd (MBD3 MBD (Homo sapiens); 5mC at position 6 of both strands): 3700 nM

GCCAGCGCTGGC (double strand) [hmCG]
binding result (MBD4 MBD (Homo sapiens)): binds more weakly | binding result (MBD3 MBD (Homo sapiens); 5hmC at position 6 of both strands): binds more weakly | binding result (MBD1 MBD (Homo sapiens)): binds more weakly
